{"source": "the supplement of paper PMC8728848", "binders": {"B1": {"name": "Langerin K299A/K313A (Homo sapiens), Q9UJ71 (protein)", "chain": "STLNAQIPELKSDLEKASALNTKIRALQGSLENMSKLLKRQNDILQVVSQGWKYFKGNFYYFSLIPKTWYSAEQFCVSRNSHLTSVTSESEQEFLYKTAGGLIYWIGLTKAGMEGDWSWVDDTPFNKVQSARFWIPGEPNNAGNNEHCGNIAAPSLQAWNDAPCDATFLFICKRPYVPSEP"}}, "test_in_all_cases": "glycan array binding signal (z-score within array); higher = stronger binding", "conditions_in_all_cases": "glycan notation: IUPAC condensed, linker removed", "key": {"Fuc(a1-2)Gal": {"target": "Fuc(a1-2)Gal", "summary_of_the_method": "(§1)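 Glycan array data were curated from 3228 arrays in the Consortium for Functional Glycomics database and kept only where the protein sequence was available. Glycan names were converted to IUPAC-condensed notation, and columns mapping to the same glycan were averaged. The binding signal is a within-array Z-score, averaged across arrays of the same protein sequence at different concentrations or buffers and across linkers. Negative Z-scores can be read as non-binding.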"}, "Fuc(a1-2)Gal(b1-3)GalNAc": {"target": "Fuc(a1-2)Gal(b1-3)GalNAc", "summary_of_the_method": "as §1"}, "[1]": {"target": "Fuc(a1-2)Gal(b1-3)GalNAc(a1-3)[Fuc(a1-2)]Gal(b1-4)Glc", "summary_of_the_method": "as §1"}, "[2]": {"target": "Fuc(a1-2)Gal(b1-3)GalNAc(a1-3)[Fuc(a1-2)]Gal(b1-4)GlcNAc", "summary_of_the_method": "as §1"}, "[3]": {"target": "Fuc(a1-2)Gal(b1-3)GalNAc(b1-3)Gal", "summary_of_the_method": "as §1"}, "[4]": {"target": "Fuc(a1-2)Gal(b1-3)GalNAc(b1-3)Gal(a1-4)Gal(b1-4)Glc", "summary_of_the_method": "as §1"}, "[5]": {"target": "Fuc(a1-2)Gal(b1-3)GalNAc(b1-4)[Neu5Ac(a2-3)]Gal(b1-4)Glc", "summary_of_the_method": "as §1"}, "Fuc(a1-2)Gal(b1-3)GlcNAc": {"target": "Fuc(a1-2)Gal(b1-3)GlcNAc", "summary_of_the_method": "as §1"}, "[6]": {"target": "Fuc(a1-2)Gal(b1-3)GlcNAc(b1-2)Man(a1-3)[Fuc(a1-2)Gal(b1-3)GlcNAc(b1-2)Man(a1-6)]Man(b1-4)GlcNAc(b1-4)GlcNAc", "summary_of_the_method": "as §1"}, "[7]": {"target": "Fuc(a1-2)Gal(b1-3)GlcNAc(b1-2)Man(a1-3)[Fuc(a1-2)Gal(b1-3)GlcNAc(b1-2)Man(a1-6)]Man(b1-4)GlcNAc(b1-4)[Fuc(a1-6)]GlcNAc", "summary_of_the_method": "as §1"}, "[8]": {"target": "Fuc(a1-2)Gal(b1-3)GlcNAc(b1-3)Gal(b1-4)Glc", "summary_of_the_method": "as §1"}, "[9]": {"target": "Fuc(a1-2)Gal(b1-3)GlcNAc(b1-3)GalNAc", "summary_of_the_method": "as §1"}, "[10]": {"target": "Fuc(a1-2)Gal(b1-3)GlcNAc(b1-3)[Fuc(a1-2)Gal(b1-3)GlcNAc(b1-6)]GalNAc", "summary_of_the_method": "as §1"}, "[11]": {"target": "Fuc(a1-2)Gal(b1-3)GlcNAc(b1-3)[Gal(b1-4)GlcNAc(b1-6)]Gal(b1-4)Glc", "summary_of_the_method": "as §1"}, "[12]": {"target": "Fuc(a1-2)Gal(b1-3)GlcNAc(b1-3)[Neu5Ac(a2-6)Gal(b1-4)GlcNAc(b1-6)]Gal(b1-4)Glc", "summary_of_the_method": "as §1"}, "[13]": {"target": "Fuc(a1-2)Gal(b1-3)GlcNAc6S", "summary_of_the_method": "as §1"}, "[14]": {"target": "Fuc(a1-2)Gal(b1-3)[Fuc(a1-4)]GlcNAc", "summary_of_the_method": "as §1"}, "[15]": {"target": "Fuc(a1-2)Gal(b1-3)[Fuc(a1-4)]GlcNAc(b1-2)Man(a1-3)[Fuc(a1-2)Gal(b1-3)[Fuc(a1-4)]GlcNAc(b1-2)Man(a1-3)]Man(b1-4)GlcNAc(b1-4)GlcNAc", "summary_of_the_method": "as §1"}, "[16]": {"target": "Fuc(a1-2)Gal(b1-3)[Fuc(a1-4)]GlcNAc(b1-2)Man(a1-3)[Fuc(a1-2)Gal(b1-3)[Fuc(a1-4)]GlcNAc(b1-2)Man(a1-6)]Man(b1-4)GlcNAc(b1-4)[Fuc(a1-6)]GlcNAc(b1-4)[Fuc(a1-6)]GlcNAc", "summary_of_the_method": "as §1"}, "[17]": {"target": "Fuc(a1-2)Gal(b1-3)[Fuc(a1-4)]GlcNAc(b1-3)[Fuc(a1-3)[Gal(b1-4)]GlcNAc(b1-6)]Gal(b1-4)Glc", "summary_of_the_method": "as §1"}, "[18]": {"target": "Fuc(a1-2)Gal(b1-3)[Fuc(a1-4)]GlcNAc(b1-3)[Gal(b1-4)GlcNAc(b1-6)]Gal(b1-4)Glc", "summary_of_the_method": "as §1"}, "[19]": {"target": "Fuc(a1-2)Gal(b1-4)Fuc(a1-3)]GlcNAc(b1-2)Man(a1-3)[Fuc(a1-2)Gal(b1-4)[Fuc(a1-3)]GlcNAc(b1-2)Man(a1-6)]Man(b1-4)GlcNAc(b1-4)GlcNAc", "summary_of_the_method": "as §1"}, "Fuc(a1-2)Gal(b1-4)Glc": {"target": "Fuc(a1-2)Gal(b1-4)Glc", "summary_of_the_method": "as §1"}, "Fuc(a1-2)Gal(b1-4)Glc6S": {"target": "Fuc(a1-2)Gal(b1-4)Glc6S", "summary_of_the_method": "as §1"}, "Fuc(a1-2)Gal(b1-4)GlcNAc": {"target": "Fuc(a1-2)Gal(b1-4)GlcNAc", "summary_of_the_method": "as §1"}, "[20]": {"target": "Fuc(a1-2)Gal(b1-4)GlcNAc(b1-2)Man", "summary_of_the_method": "as §1"}, "[21]": {"target": "Fuc(a1-2)Gal(b1-4)GlcNAc(b1-2)Man(a1-3)[Fuc(a1-2)Gal(b1-4)GlcNAc(b1-2)Man(a1-6)]Man(b1-4)GlcNAc(b1-4)GlcNAc", "summary_of_the_method": "as §1"}, "[22]": {"target": "Fuc(a1-2)Gal(b1-4)GlcNAc(b1-2)Man(a1-3)[Fuc(a1-2)Gal(b1-4)GlcNAc(b1-2)Man(a1-6)]Man(b1-4)GlcNAc(b1-4)[Fuc(a1-6)]GlcNAc", "summary_of_the_method": "as §1"}, "[23]": {"target": "Fuc(a1-2)Gal(b1-4)GlcNAc(b1-2)[Fuc(a1-2)Gal(b1-4)GlcNAc(b1-4)]Man(a1-3)[Fuc(a1-2)Gal(b1-4)GlcNAc(b1-2)Man(a1-6)]Man(b1-4)GlcNAc(b1-4)GlcNAc", "summary_of_the_method": "as §1"}, "[24]": {"target": "Fuc(a1-2)Gal(b1-4)GlcNAc(b1-3)Gal(b1-4)GlcNAc", "summary_of_the_method": "as §1"}}, "note": "Some of the results follow."}
{"binder": "B1", "values": [{"measurement": "glycan array binding signal (z-score)", "setting": "Fuc(a1-2)Gal", "result": -0.225}, {"measurement": "glycan array binding signal (z-score)", "setting": "Fuc(a1-2)Gal(b1-3)GalNAc", "result": -0.554}, {"measurement": "glycan array binding signal (z-score)", "setting": "[1]", "result": -0.167}, {"measurement": "glycan array binding signal (z-score)", "setting": "[2]", "result": -0.954}, {"measurement": "glycan array binding signal (z-score)", "setting": "[3]", "result": 0.181}, {"measurement": "glycan array binding signal (z-score)", "setting": "[4]", "result": -0.563}, {"measurement": "glycan array binding signal (z-score)", "setting": "[5]", "result": -0.461}, {"measurement": "glycan array binding signal (z-score)", "setting": "Fuc(a1-2)Gal(b1-3)GlcNAc", "result": -0.849}, {"measurement": "glycan array binding signal (z-score)", "setting": "[6]", "result": 0.278}, {"measurement": "glycan array binding signal (z-score)", "setting": "[7]", "result": 2.68}, {"measurement": "glycan array binding signal (z-score)", "setting": "[8]", "result": -0.768}, {"measurement": "glycan array binding signal (z-score)", "setting": "[9]", "result": 0.103}, {"measurement": "glycan array binding signal (z-score)", "setting": "[10]", "result": 0.732}, {"measurement": "glycan array binding signal (z-score)", "setting": "[11]", "result": -0.197}, {"measurement": "glycan array binding signal (z-score)", "setting": "[12]", "result": 0.388}, {"measurement": "glycan array binding signal (z-score)", "setting": "[13]", "result": -0.062}, {"measurement": "glycan array binding signal (z-score)", "setting": "[14]", "result": -0.416}, {"measurement": "glycan array binding signal (z-score)", "setting": "[15]", "result": 1.67}, {"measurement": "glycan array binding signal (z-score)", "setting": "[16]", "result": 0.903}, {"measurement": "glycan array binding signal (z-score)", "setting": "[17]", "result": -0.457}, {"measurement": "glycan array binding signal (z-score)", "setting": "[18]", "result": -1.07}, {"measurement": "glycan array binding signal (z-score)", "setting": "[19]", "result": -0.126}, {"measurement": "glycan array binding signal (z-score)", "setting": "Fuc(a1-2)Gal(b1-4)Glc", "result": 0.61}, {"measurement": "glycan array binding signal (z-score)", "setting": "Fuc(a1-2)Gal(b1-4)Glc6S", "result": -0.78}, {"measurement": "glycan array binding signal (z-score)", "setting": "Fuc(a1-2)Gal(b1-4)GlcNAc", "result": -0.197}, {"measurement": "glycan array binding signal (z-score)", "setting": "[20]", "result": -0.127}, {"measurement": "glycan array binding signal (z-score)", "setting": "[21]", "result": 0.446}, {"measurement": "glycan array binding signal (z-score)", "setting": "[22]", "result": -0.686}, {"measurement": "glycan array binding signal (z-score)", "setting": "[23]", "result": 2.71}, {"measurement": "glycan array binding signal (z-score)", "setting": "[24]", "result": 0.077}]}
